Measured values taken from PubChem BioAssay AID540256 (National Center for Advancing Translational Sciences (NCATS), 2011).
Values joined by “and” are separate entries in the source; they are usually repeats but may differ in a detail not shown here. Equal entries are not always repeated. Out of some 300,000 compounds screened, about 3,700 (1.2%) were called active. Inconclusive results, whose numbers are uncertain, are shown with a selection of clear calls. Calls follow the shape of the full dose curve; tested in HEK293 cells. A potency beside an inconclusive call is a rough fit, not a confirmed value.

Test: qHTS for Inhibitors of binding or entry into cells for Lassa Virus; also: nearly all actives have a fitted effect of over 50% in size
Settings: Lassa virus pseudotype entry inhibition, cell reporter; activity change, negative = inhibition: at 37.9 µM (top of the series) unless noted
% is scaled to controls: 0 for no effect and ±100 for the full control effect; potency is read from the fitted curve at half-maximal effect.

Row | SMILES | activity change, negative = inhibition | Potency
1 | COC1/C=C/C=C(\C)Cc2cc(O)c(Cl)c(c2)N(C)C(=O)CC(OC(=O)C(C)C)C2(C)OC2C(C)C2CC1(O)NC(=O)O2 (centres undefined) | inactive: -24.4% | –
2 | COc1ccc(-n2c(SCc3ccc([N+](=O)[O-])cc3)nnc2-c2ccccc2)cc1 | – | inconclusive: 29.1 µM [inhibitor, single point]
3 | COC(=O)c1c(NC(=O)c2ccnn2C)sc(C)c1C | – | inconclusive: 17.8 µM [activator, partial curve, poor fit]
4 | O=C1C=CC(O)(c2cc(=O)c3c(O)cc(O)cc3o2)C=C1 | – | inconclusive: 23.1 µM [inhibitor, single point]
5 | CCc1c(C)n([O-])c2c([n+]1=O)CCC2 | – | inconclusive: 8.91 µM [activator, partial curve, poor fit]
6 | Cc1cc(C(=O)N/N=C/c2ccc(C)s2)n[nH]1 | – | inconclusive: 35.5 µM [inhibitor, single point]
7 | O=C(N/N=C/c1ccccn1)c1cc(-c2ccc(Br)cc2)nc2ccccc12 | – | inconclusive: 11.2 µM [inhibitor, partial curve, poor fit]
8 | CCOC(=O)c1c(S(=O)(=O)N2CCCC(C(=O)N3CCN(c4cccc(C)c4C)CC3)C2)c(C)n(C)c1C (centres undefined) | – | inconclusive: 35.5 µM [inhibitor, single point]
9 | CCOC(=O)C1CCCN(C(=O)c2ccc(NS(=O)(=O)c3ccc4[nH]c(=O)[nH]c4c3)cc2)C1 (centres undefined) | inactive: 20% | –
10 | COc1cccc(CNCC(=O)N2C(C)CCCC2C)c1 (centres undefined) | – | inconclusive: 0.651 µM [inhibitor, partial curve, poor fit]
11 | Nc1ccccc1C(=O)C=Cc1ccc2c(c1)OCO2 | – | inconclusive: 84.1 nM [activator, full curve, poor fit] and inconclusive: 1.33 µM [activator, full curve, poor fit]
12 | NC1=NC(=O)/C(=C\c2ccc(O)c([N+](=O)[O-])c2)S1 | inactive: 10.1% | –
13 | CNc1ccc(Br)cc(C(=O)/C=C/c2ccc3c(c2)OCO3)c1=O | – | inconclusive: 15.8 µM [inhibitor, single point]
14 | Cn1c(-c2ccc(CN3CCCCC3)o2)nc2ccccc21 | – | inconclusive: 3.16 µM [activator, single point]
15 | Cc1oc(C(C)(C)C)cc1C(=O)N1CCN(C(c2ccccc2)c2ccccc2)CC1 | – | inconclusive: 15.8 µM [inhibitor, partial curve, poor fit]
16 | CCOc1ccc(NS(=O)(=O)c2ccc(NC(=O)C3CC3)cc2)cc1 | inactive: -0.257% | –
17 | COC(=O)[C@H](Cc1ccccc1)NC(=O)c1ccc2ccccc2n1 | inactive: 8.81% | –
18 | CCc1ccc(NC(=O)C2CCN(S(=O)(=O)c3ccc4[nH]c5c(c4c3)CCCCC5)CC2)cc1 | inactive: -16.7% [at 46.1 µM] | –
19 | CC(C)[C@H](NC(=O)[C@@H]1Cc2ccccc2CN1C(=O)OC(C)(C)C)C(=O)NCc1ccco1 | – | inconclusive: 15.8 µM [activator, single point]
20 | Cc1cccnc1Nc1nc(-c2ccc(O)cc2O)cs1 | inactive: 8.7% | –
21 | CCC(C)NC(=O)CSc1nc2c(sc(=S)n2Cc2ccco2)c(=O)n1-c1ccccc1 (centres undefined) | – | inconclusive: 32.6 µM [inhibitor, single point]
22 | COc1ccc(C(=O)N(C)C2CCCc3ccccc32)cc1OC1CCN(C(C)C)CC1 (centres undefined) | – | inconclusive: 0.708 µM [activator, partial curve, poor fit]

Row | SMILES | activity change, negative = inhibition | Potency
23 | COc1ccc(C(C)=O)cc1CN(c1ccccc1OC)S(=O)(=O)c1cccs1 | – | inconclusive: 10 µM [inhibitor, partial curve]
24 | Cc1cc(=O)oc2c1ccc1oc(/C(=N/O)c3ccccc3)c(C)c12 | – | inconclusive: 23.1 µM [inhibitor, single point]
25 | COc1ccc(CNC(=O)C(c2ccc(C)o2)N(C(=O)c2snc(C(N)=O)c2N)c2ccccc2OC)cc1 (centres undefined) | – | inconclusive: 35.5 µM [inhibitor, single point]
26 | COc1cc(NC(=O)c2ccccc2)ccc1NC(=O)c1cc2ccccc2o1 | – | inactive
27 | Cc1ccc(-n2c(C)cc(/C=N/Nc3ccc([N+](=O)[O-])cn3)c2C)c(C)c1 | – | inconclusive: 22.4 µM [inhibitor, single point]
28 | CC(C)NC(=O)c1nc2ccccc2s1 | inactive: 16.2% | –
29 | Cc1cccc(NC(=O)c2nc(S(C)(=O)=O)ncc2Cl)c1 | – | inconclusive: 14.1 µM [inhibitor, single point]
30 | Cc1ccc(N2CCN(C(=O)c3ccccc3NC(=O)c3ccccc3C(=O)O)CC2)cc1 | – | inconclusive: 23.1 µM [activator, partial curve, poor fit]
31 | Oc1ccccc1-c1cc(-c2cccc(F)c2)n[nH]1 | – | inconclusive: 7.3 µM [activator, partial curve, poor fit]
32 | O=C(Nc1nc2ccccc2n1CCN1CCCC1)c1ccc(Cl)cc1 | – | inconclusive: 35.5 µM [inhibitor, single point]
33 | CCOc1ccc(NC(=O)c2ccncc2)cc1 | inactive: 29.7% | –
34 | O=C(Nc1ccc(F)cc1)c1c(Cl)nc2ccccn12 | inactive: -9.73% | –
35 | COc1ccc(F)cc1CSc1nnnn1-c1ccc(O)cc1 | – | inconclusive: 35.5 µM [inhibitor, single point]
36 | Cn1ccc2c(N3CCOCC3)cc3c(c21)C1CCC3C1 (centres undefined) | – | inconclusive: 5.6 µM [activator, single point]
37 | O=C1c2ccccc2C(=O)N1CCC(=O)N1CCCc2ccccc21 | – | inconclusive: 25.1 µM [activator, single point]
38 | Cc1ccc2cc(C#N)c(N3CCCN(C(=S)NCCCN(C)C)CC3)nc2c1 | – | inconclusive: 22.4 µM [inhibitor, single point]
39 | C=CCN1CCc2cccc3c2[C@H]1Cc1ccc(O)c(O)c1-3 | – | inconclusive: 7.3 µM [inhibitor, partial curve]
40 | Cc1ccc2oc(C(=O)N3CCN(c4cccc(C)n4)CC3)c(C)c2c1 | – | inconclusive: 35.5 µM [inhibitor, single point]
41 | Cc1ccc2oc(-c3cccc(NC(=O)c4ccc(Br)o4)c3C)nc2c1 | – | inconclusive: 35.5 µM [inhibitor, single point]
42 | Cc1c(OCc2ccc([N+](=O)[O-])cc2)ccc2c3c(c(=O)oc12)CCC3 | – | inconclusive: 2.06 µM [activator, full curve, poor fit]
43 | Cc1ccc(NC(=S)N(CCCN2CCN(C)CC2)Cc2cccs2)cc1 | – | inconclusive: 2.82 µM [inhibitor, single point]
44 | Cn1c(CCNC(=O)c2ccco2)nc2ccccc21 | inactive: 9.36% | –

Random excerpt: 5 compounds from above
Row | SMILES | activity change, negative = inhibition | Potency
13 | CNc1ccc(Br)cc(C(=O)/C=C/c2ccc3c(c2)OCO3)c1=O | – | inconclusive: 15.8 µM [inhibitor, single point]
1 | COC1/C=C/C=C(\C)Cc2cc(O)c(Cl)c(c2)N(C)C(=O)CC(OC(=O)C(C)C)C2(C)OC2C(C)C2CC1(O)NC(=O)O2 (centres undefined) | inactive: -24.4% | –
21 | CCC(C)NC(=O)CSc1nc2c(sc(=S)n2Cc2ccco2)c(=O)n1-c1ccccc1 (centres undefined) | – | inconclusive: 32.6 µM [inhibitor, single point]
4 | O=C1C=CC(O)(c2cc(=O)c3c(O)cc(O)cc3o2)C=C1 | – | inconclusive: 23.1 µM [inhibitor, single point]
5 | CCc1c(C)n([O-])c2c([n+]1=O)CCC2 | – | inconclusive: 8.91 µM [activator, partial curve, poor fit]

(further entries)

Row | SMILES | activity change, negative = inhibition | Potency
45 | CSc1ccc(CN(C)CC(=O)NC(C)c2ccccc2)cc1 (centres undefined) | – | inconclusive: 12.6 µM [inhibitor, partial curve]
46 | COc1ccc(NC(=O)CC2CCCC2)cc1S(=O)(=O)N1CCCCC1 | – | active: 10 µM
47 | Cc1ccc(C(c2nnnn2C2CCCC2)N2CCN(c3nc4ccccc4s3)CC2)cc1 (centres undefined) | – | inconclusive: 16.4 µM [inhibitor, partial curve, poor fit]
48 | CCN(C(=O)c1ccc(S(C)(=O)=O)cc1)C12CC3CC(CC(C3)C1)C2 | – | inconclusive: 35.5 µM [inhibitor, partial curve, poor fit]
49 | NNC(=O)CN1C(c2ccccc2)=Nc2ccc(Br)cc2C1c1ccccc1 (centres undefined) | – | inconclusive: 12.6 µM [inhibitor, single point]
50 | CCOc1ccc2nc(C)cc(Nc3ccccc3OCC)c2c1 | – | inconclusive: 22.4 µM [inhibitor, single point]
51 | COc1ccc(-c2cc3nc4n(c(=O)c3s2)CCC4)cc1 | – | inconclusive: 2.06 µM [inhibitor, full curve, poor fit]
52 | Cc1ccc(Cl)cc1N1CCN(C(=O)CCC(=O)Nc2ccc3nc(N4CCC(C)CC4)cc(C)c3c2)CC1 | – | inconclusive: 0.794 µM [inhibitor, full curve, poor fit]
53 | O=C(NC(=S)NC1CCCCC1)c1ccc(Cl)cc1 | – | inconclusive: 6.31 µM [activator, full curve, poor fit]
54 | COc1ccccc1NC(=O)c1ccc(SCC(=O)NCc2ccccc2Cl)c([N+](=O)[O-])c1 | inactive: 6.46% | –
55 | Cc1ccccc1N(CC(=O)Nc1ccccc1C(=O)NCc1ccco1)S(=O)(=O)c1ccccc1 | – | inconclusive: 22.4 µM [inhibitor, single point]
56 | CC(=O)c1ccc(S(=O)(=O)Nc2cccc(-c3ccc(N4CCCCC4)nn3)c2)cc1 | inactive: -23.2% [at 46.1 µM] | –
57 | O=[N+]([O-])c1cc(-c2nc(-c3ccccc3)no2)ccc1N1CCN(c2ccccc2)CC1 | inactive: 12.6% [at 46.1 µM] | –
58 | Cc1ccc(CNC(=O)C2CCN(c3nc4ccccc4n(C)c3=O)CC2)cc1 | inactive: -22.6% [at 46.1 µM] | –
59 | CCOC(=O)CSc1nc2c(sc3ccccc32)c(=O)n1CCc1ccccc1 | – | inconclusive: 8.91 µM [activator, partial curve, poor fit]
60 | CCOc1ccc(/C=N/NC(=O)c2ccc(CSc3nc4ccccc4[nH]3)cc2)cc1 | – | inconclusive: 3.66 µM [inhibitor, full curve]
61 | CC1CN(C(=O)CSc2cn(CC(=O)N3CCOCC3)c3ccccc23)CC(C)O1 (centres undefined) | – | inconclusive: 5.62 µM [activator, partial curve, poor fit]
62 | O=c1c(-c2ccc3c(c2)OCCO3)coc2cc(OC3OC(CO)C(O)C(O)C3O)ccc12 (centres undefined) | – | inconclusive: 6.51 µM [inhibitor, full curve, poor fit]
63 | COc1ccccc1OCCC(=O)OCC(=O)Nc1cccc(Br)c1 | – | inconclusive: 35.5 µM [activator, single point]
64 | O=C(c1ccccc1)N1CCN(c2ccc([N+](=O)[O-])c(NCC3CCCO3)c2)CC1 (centres undefined) | – | inconclusive: 35.5 µM [inhibitor, single point]
